These are yes or no findings as the source states them, for the method shown. Some entries that bind do so weakly or less than the wild type.
Biological target: T1, poly-Ser peptide with central Cys conjugated to AMG-510
T1 sequence (peptide, AMG-510 on Cys; Lys-long chain biotin; C-terminal amide): SSSSCSSSSWK
Test: yeast display, flow cytometry (FIG. 6)

B1: P2AMR-12 (scFv, V domains shown)
VH: QVQLQESGPGLVKPSETLSLTCTVSGDSIINDPHYWGWIRQSPGKGLEWIGSTSHSGHTYFNPSLKSRVSMSIDVAKNQFSLNVRSVTAADTAVYYCARMRYYYSGTYPVYYFDYWGQGTLVTVSS
binding: binds
